Several values for one entry are separate records, joined by “and”; a condition that tells them apart may be missing. Equal entries are not always repeated.

Data set [1] has as its system buckwheat explants. The experiment in a line: Buckwheat explant feeding with 100 mM cyclitol in 1% sucrose for 5 days, soluble carbohydrates in embryos and leaf disks. Format: in vivo, Fagopyrum esculentum. The following applies: replicate values.
For data set [2], the system named is buckwheat embryos. The data set is described as follows: Soluble carbohydrates in buckwheat embryos from seeds matured at 15, 22 or 30° C. Format: in vivo, Fagopyrum esculentum Moench. The following applies: for Soluble carbohydrates in buckwheat embryos: harvested at 28 DAP and dried 2 weeks at 12% RH, mean ± SE.
[3] abbreviates: fed 100 mM D-chiro-inositol in 1% sucrose solution 5 days, 2 days slow drying.
Where [4] appears, read: fed 100 mM D-chiro-inositol in 1% sucrose solution 5 days, 4 days slow drying.
[5] abbreviates: fed 100 mM D-chiro-inositol in 1% sucrose solution 5 days, 7 days slow drying.
The mark [6] stands for this setting: fed 100 mM D-chiro-inositol in 1% sucrose solution, after 1 day feeding.
Setting [7] is: fed 100 mM D-chiro-inositol in 1% sucrose solution, after 5 days feeding.
Setting [8] is: fed 100 mM D-pinitol in 1% sucrose solution 5 days, 2 days slow drying.
The mark [9] stands for this setting: fed 100 mM D-pinitol in 1% sucrose solution 5 days, 4 days slow drying.
The mark [10] stands for this setting: fed 100 mM D-pinitol in 1% sucrose solution 5 days, 7 days slow drying.
Setting [11] is: fed 100 mM D-pinitol in 1% sucrose solution, after 1 day feeding.
Where [12] appears, read: fed 100 mM D-pinitol in 1% sucrose solution, after 5 days feeding.
Setting [13] is: fed 100 mM myo-inositol in 1% sucrose solution 5 days, 2 days slow drying.
Setting [14] is: fed 100 mM myo-inositol in 1% sucrose solution 5 days, 4 days slow drying.
Where [15] appears, read: fed 100 mM myo-inositol in 1% sucrose solution 5 days, 7 days slow drying.
Setting [16] is: fed 100 mM myo-inositol in 1% sucrose solution, after 1 day feeding.
The mark [17] stands for this setting: fed 100 mM myo-inositol in 1% sucrose solution, after 5 days feeding.
Where [18] appears, read: fed 1% sucrose (without cyclitols) solution 5 days, 2 days slow drying.
[19] abbreviates: fed 1% sucrose (without cyclitols) solution 5 days, 4 days slow drying.
[20] abbreviates: fed 1% sucrose (without cyclitols) solution 5 days, 7 days slow drying.
Setting [21] is: fed 1% sucrose (without cyclitols) solution, after 5 days feeding.

Take `OCC1O[C@H](OCC2O[C@@H](O[C@H]3C(O)C(O)[C@H](O)C(O)[C@@H]3O)C(O)[C@H](O)[C@H]2O)C(O)[C@H](O)[C@H]1O` (stereo partly drawn) [Fagopyritol A2, α-D-galactopyranosyl-(1→6)-α-D-galactopyranosyl-(1→3)-1D-chiro-inositol]: the “Soluble carbohydrates in embryos of seeds from buckwheat explants” value (from here on “Soluble carbohydrates in embryos”) in data set [1] (setting [3]) was 6.43 μg/embryo and 4.91 μg/embryo; in data set [1] (setting [4]), 4.19 μg/embryo and 2.04 μg/embryo and 4.42 μg/embryo; in data set [1] (setting [5]), 2.57 μg/embryo and 1.19 μg/embryo and 1.33 μg/embryo; in data set [1] (setting [6]), 0 μg/embryo; in data set [1] (setting [7]), 0 μg/embryo and 10.11 μg/embryo and 1.93 μg/embryo; in data set [1] (setting [8]) it was 0 μg/embryo and 9.52 μg/embryo and 6.89 μg/embryo. Besides, the “Soluble carbohydrates in embryos” value in data set [1] (setting [9]) was 6.18 μg/embryo and 6.64 μg/embryo and 4.73 μg/embryo; in data set [1] (setting [10]) it was 1.30 μg/embryo and 0.71 μg/embryo and 2.21 μg/embryo; in data set [1] (setting [11]), 0 μg/embryo; in data set [1] (setting [12]) it was 0 μg/embryo (2×) and 4.65 μg/embryo; in data set [1] (setting [13]), 38.72 μg/embryo and 10.89 μg/embryo; in data set [1] (setting [14]), 11.49 μg/embryo and 4.52 μg/embryo. In addition, the “Soluble carbohydrates in embryos” value was 2.54 μg/embryo and 2.64 μg/embryo in data set [1] (setting [15]); 0 μg/embryo in data set [1] (setting [16]); 2.60 μg/embryo and 0 μg/embryo in data set [1] (setting [17]); 0.58 μg/embryo and 12.29 μg/embryo and 8.09 μg/embryo in data set [1] (setting [18]); 10.60 μg/embryo and 6.87 μg/embryo in data set [1] (setting [19]); 7.35 μg/embryo and 6.34 μg/embryo in data set [1] (setting [20]). Further, the “Soluble carbohydrates in embryos” value in data set [1] (setting [21]) was 0 μg/embryo and 8.12 μg/embryo. Moreover, in data set [2] (after 2 weeks of drying of seeds), the “content in embryos of seeds matured at 30° C. relative to 15° C.” value is given as “about 4 times”. The “Soluble carbohydrates in buckwheat embryos” value in data set [2] (seeds matured at 15° C.) amounted to 3.66 ± 0.84 μg/embryo; in data set [2] (seeds matured at 22° C.) it was 11.12 ± 3.04 μg/embryo; in data set [2] (seeds matured at 30° C.), 15.52 ± 0.68 μg/embryo.
As to digalactosyl myo-inositol, the “Minor soluble carbohydrates in buckwheat embryos” value in data set [2] (maturation temperature 15° C., 16 DAP) was 0 μg/embryo; in data set [2] (maturation temperature 15° C., 20 DAP) it was 0 μg/embryo; in data set [2] (maturation temperature 15° C., 28 DAP) it was 0 μg/embryo; in data set [2] (maturation temperature 15° C., 28 DAP + 2 wk 12% RH), 0.25 ± 0.25 μg/embryo; in data set [2] (maturation temperature 22° C., 16 DAP), 0 μg/embryo; in data set [2] (maturation temperature 22° C., 20 DAP), 1.38 ± 0.84 μg/embryo. In addition, the “Minor soluble carbohydrates in buckwheat embryos” value in data set [2] (maturation temperature 22° C., 28 DAP) is 1.12 ± 0.18 μg/embryo; in data set [2] (maturation temperature 22° C., 28 DAP + 2 wk 12% RH) it was 0.55 ± 0.55 μg/embryo; in data set [2] (maturation temperature 30° C., 16 DAP), 1.02 ± 1.02 μg/embryo; in data set [2] (maturation temperature 30° C., 20 DAP), 3.54 ± 2.51 μg/embryo; in data set [2] (maturation temperature 30° C., 28 DAP) it was 2.21 ± 0.32 μg/embryo; in data set [2] (maturation temperature 30° C., 28 DAP + 2 wk 12% RH), 1.69 ± 0.73 μg/embryo. Besides, the figures for the “Soluble carbohydrates in buckwheat embryos” value in data set [2] (seeds matured at 15° C.), in data set [2] (seeds matured at 22° C.) and in data set [2] (seeds matured at 30° C.) were 0.25 ± 0.25 μg/embryo, 0.55 ± 0.55 μg/embryo and 1.69 ± 0.73 μg/embryo, respectively.
`OCC1O[C@@H](O[C@H]2C(O)C(O)[C@H](O)C(O)C2O)C(O)C(O)[C@H]1O` (stereo partly drawn) [Fagopyritol A1, α-D-galactopyranosyl-(1→3)-1D-chiro-inositol]: the “Soluble carbohydrates in embryos” value in data set [1] (setting [3]) is 25.53 μg/embryo and 117.32 μg/embryo; in data set [1] (setting [4]), 27.38 μg/embryo and 42.86 μg/embryo and 52.16 μg/embryo; in data set [1] (setting [5]) it was 41.11 μg/embryo and 21.71 μg/embryo and 27.96 μg/embryo; in data set [1] (setting [6]), 0 μg/embryo; in data set [1] (setting [7]) it was 10.71 μg/embryo and 133.47 μg/embryo and 69.49 μg/embryo; in data set [1] (setting [8]), 2.38 μg/embryo and 29.81 μg/embryo and 23.96 μg/embryo. Besides, the “Soluble carbohydrates in embryos” value in data set [1] (setting [9]) is 16.78 μg/embryo and 39.10 μg/embryo and 15.80 μg/embryo; in data set [1] (setting [10]), 10.82 μg/embryo and 12.44 μg/embryo and 20.01 μg/embryo; in data set [1] (setting [11]) it was 0 μg/embryo; in data set [1] (setting [12]), 0 μg/embryo and 21.43 μg/embryo and 22.91 μg/embryo; in data set [1] (setting [13]) it was 62.19 μg/embryo and 29.81 μg/embryo; in data set [1] (setting [14]), 19.72 μg/embryo and 41.42 μg/embryo. Also, the “Soluble carbohydrates in embryos” value was 14.49 μg/embryo and 34.61 μg/embryo in data set [1] (setting [15]); 0 μg/embryo in data set [1] (setting [16]); 18.90 μg/embryo and 10.94 μg/embryo in data set [1] (setting [17]); 12.27 μg/embryo and 51.20 μg/embryo and 76.65 μg/embryo in data set [1] (setting [18]); 16.02 μg/embryo and 14.64 μg/embryo in data set [1] (setting [19]); 23.01 μg/embryo and 15.97 μg/embryo in data set [1] (setting [20]). Also, the “Soluble carbohydrates in embryos” value in data set [1] (setting [21]) is 0.70 μg/embryo and 27.67 μg/embryo. Also, the “Soluble carbohydrates in buckwheat embryos” value stood at 45.59 ± 5.24 μg/embryo in data set [2] (seeds matured at 15° C.), 34.15 ± 10.02 μg/embryo in data set [2] (seeds matured at 22° C.) and 21.78 ± 1.55 μg/embryo in data set [2] (seeds matured at 30° C.).

The values above are taken from patent publication US9926581B2, “Fagopyritol synthase genes and uses thereof” (Cornell Research Foundation, Inc., priority 2002, dated 2018).
